Values joined by “and” are separate entries in the source; they are usually repeats but may differ in a detail not shown here. Equal values may be shown once. Out of some 300,000 compounds screened, about 5,400 (1.8%) were called active. This list was built around the results that the source calls inconclusive (neither active nor inactive); the mix of calls is not that of the screen. Calls follow the shape of the full dose curve; tested in HEK293 cells. Where the call is inconclusive, the potency comes from a doubtful curve fit.
Assay: qHTS for inhibitors of binding or entry into cells for Marburg Virus
Conditions: Marburg virus pseudotyped entry inhibition, cell reporter; activity change, negative = inhibition: at 37.8 µM (top of the series) unless noted
% is scaled to controls: 0 for no effect and ±100 for the full control effect; potency is read from the fitted curve at half-maximal effect.

SMILES	activity change, negative = inhibition	Potency
CC(C)[C@H](NC(=O)c1ccccc1)C(=O)OCC(=O)/C=C1/N(C)c2ccccc2C1(C)C	inactive: -40.5%	–
O=C(O)c1ccc(/C=N/NC(=O)c2ccc(Br)cc2)cc1	–	inconclusive: 6.31 µM [activator, single point]
CSC1=C(C#N)C(=O)NC(c2ccc(Cl)cc2)S1 (centres undefined)	–	inactive
C/C(CC(=O)NC1CCCCC1)=N\NC(=O)c1ccccc1C	–	inconclusive: 11.2 µM [inhibitor, partial curve, poor fit]
CCCc1cc(=O)[nH]c(SCC(=O)N2CCN(S(=O)(=O)c3ccc(C)cc3C)CC2)n1	–	inconclusive: 2 µM [activator, partial curve, poor fit]
c1ccc2c(c1)oc1c(Nc3ccc4c(c3)OCO4)ncnc12	–	inconclusive: 35.5 µM [inhibitor, single point]
CCSc1nnc(NC(=O)c2cccc(S(=O)(=O)N(C)c3ccccc3)c2)s1	inactive: -14.5%	–
COc1ccc(C(=O)NNC(=O)c2ccccn2)cc1	–	inconclusive: 1.46 µM [inhibitor, full curve, poor fit]
CCOc1ccc(N2CC(C(=O)NCc3cccc(C)c3)CC2=O)cc1 (centres undefined)	–	inconclusive: 10 µM [inhibitor, single point]
CC(C)C(C)(C#N)NC(=O)CSc1nc(C2CCCCC2)n(-c2ccccc2)n1 (centres undefined)	–	inconclusive: 17.8 µM [inhibitor, single point]
Cc1cc(C)nc(SC2c3cccc4cccc(c34)C2NS(=O)(=O)c2ccccc2)n1 (centres undefined)	–	inconclusive: 4.11 µM [inhibitor, partial curve, poor fit]
Clc1ccc(CNc2ncnc3[nH]ncc23)cc1Cl	–	active: 3.98 µM
COC(CN(C(=O)CCl)C(C(=O)NC1CCCCC1)c1ccccc1C)OC (centres undefined)	–	inconclusive: 17.8 µM [inhibitor, partial curve, poor fit]
COc1ccccc1-c1nnc(-c2ccc(N3CCOCC3)cc2)o1	–	inconclusive: 23.1 µM [activator, partial curve, poor fit]
CC1CCCCN1CCCNC(=O)Cn1ncc2c3ccccc3n(Cc3ccccc3)c2c1=O (centres undefined)	–	inconclusive: 7.94 µM [inhibitor, partial curve, poor fit]
COc1ccccc1N1CCN(Cc2nc(-c3cc(OC)c(OC)c(OC)c3)no2)CC1	inactive: -19.6% [at 46.1 µM]	–
NC(N)=N/N=C/c1ccccc1	inactive: -3.28%	–
CCS(=O)(=O)N1CCC(C(=O)NCCc2ccc(C)cc2)CC1	–	inconclusive: 4.61 µM [activator, partial curve, poor fit]
CC1CCN(CCCn2c(SCC(=O)Nc3ccccc3Cl)nc3ccccc3c2=O)CC1	–	inconclusive: 5.01 µM [inhibitor, full curve, poor fit]
CC(C)(C)c1ccc(NC(=O)c2ccc(=O)[nH]n2)cc1	–	inconclusive: 0.631 µM [activator, partial curve, poor fit]
O=C(O)CCc1ccc(-c2ccc(Br)cc2)n1CC(=O)O	–	inconclusive: 23.1 µM [activator, single point]
O=C(CNS(=O)(=O)c1ccccc1F)Nc1ccc(N2CCOCC2)cc1	–	inconclusive: 0.651 µM [inhibitor, single point]

SMILES	activity change, negative = inhibition	Potency
O=C(C1CC(c2ccccc2O)=NO1)N1CCCC1 (centres undefined)	–	inconclusive: 8.2 µM [activator, partial curve]
COc1cccc(-n2nnnc2SCC(=O)NC2CCCCC2)c1	inactive: 2.94% [at 46.1 µM]	–
CCOC(=O)c1ccc(S(=O)(=O)Nc2cc(S(=O)(=O)Nc3ccc(OC)cc3)ccc2O)cc1	inactive: -1.78%	–
O=C(Nc1ccc2ncccc2c1)c1ccccc1Br	inactive: -4.05%	–
Cc1nc2ccccc2c(=O)n1/N=C/c1cc(Br)cc(Br)c1O	–	inconclusive: 35.5 µM [inhibitor, single point]
c1ccc(-c2ccccc2OCCCCN2CCCCC2)cc1	–	active: 7.08 µM
COCCNC(=S)Nc1cc2oc3ccccc3c2cc1OC	inactive: 0.972%	–
COc1cccc(NC(=O)CN(C)C(=O)CNC(=O)c2ccc3ccccc3c2)c1	inactive: -10.8%	–
CCc1c(-c2ccccc2)nc(N)c(C#N)c1-c1cccs1	–	inconclusive: 29.1 µM [inhibitor, single point]
CC(=O)Nc1ccc(NC(=O)CSc2nnc(NC(=O)c3ccco3)s2)cc1	inactive: 18.7%	–
COc1ccccc1C1C(C(=O)Nc2ccccc2)=C(C)Nc2nc(-c3ccccc3)nn21 (centres undefined)	inactive: -9.23% [at 46.1 µM]	–
N#Cc1cccc(C(=O)Nc2cccc(S(=O)(=O)N3CCCC3)c2)c1	–	inconclusive: 25.1 µM [inhibitor, single point]
CCCCCn1c(=O)[nH]c2cc(C(=O)NCCCN3CCC(C)CC3)ccc2c1=O	–	inconclusive: 29.1 µM [inhibitor, single point]
CCc1ccc(N2C(=O)C(Cl)=C(N3CCOCC3)C2=O)cc1	–	inconclusive: 0.891 µM [inhibitor, full curve, poor fit]
Cc1c(Cl)cccc1NC(=O)C1Cc2ccccc2CN1C(=O)c1ccccc1 (centres undefined)	–	inconclusive: 14.1 µM [inhibitor, single point]
CN(C)c1ccc(-n2cccc2/C=C/[N+](=O)[O-])cc1	–	inconclusive: 22.4 µM [inhibitor, single point]
CCOc1ccc(NC(=O)CC2SC(N)=NC2=O)c([N+](=O)[O-])c1 (centres undefined)	–	inconclusive: 1.26 µM [inhibitor, single point]
O=C(CSc1nccn1-c1ncc(C(F)(F)F)cc1Cl)c1ccc(Br)cc1	–	inconclusive: 5.62 µM [activator, single point]
CNC(=O)c1cc2cc(OC)ccc2oc1=O	inactive: 16.3%	–
COc1ccc(S(=O)(=O)Nc2nnc(Cc3ccc(OC)c(OC)c3)s2)cc1	inactive: 8.42% [at 46.1 µM]	–
Cc1ccc(C(C(=O)NCC2CCCO2)N(Cc2ccccc2)C(=O)c2ccc(-c3ccccc3)[nH]2)o1 (centres undefined)	–	inconclusive: 0.891 µM [inhibitor, full curve, poor fit]

From PubChem BioAssay AID540276 (National Center for Advancing Translational Sciences (NCATS), 2011)
